{"source": "patent US9446011B2", "about": "“Anticonvulsant combination therapy” (UCB Pharma GmbH, priority 2006, dated 2016)", "system": "6 Hz-induced seizures", "test": "6 Hz seizure test in mice with isobolographic analysis", "settings": "drug administered alone, i.p.", "note": "At least one structure is not confirmed: it was looked up by name or label, or the drawing left a doubt.", "data": [{"smiles": "CCCC(CCC)C(=O)O", "note": "[VPA, valproate]", "values": [{"measurement": "anticonvulsant effects against 6 Hz seizure", "result": "dose-dependent anticonvulsant effects"}]}]}
